Source: publication PMC4778064
These are yes or no findings as the source states them, for the method shown. In cells and extracts the contact can be indirect. Binding can be weak; no strength is given.

By UniProt entry, the sequences of proteins in these tests, tags left out.
UniProt D3Z7H4: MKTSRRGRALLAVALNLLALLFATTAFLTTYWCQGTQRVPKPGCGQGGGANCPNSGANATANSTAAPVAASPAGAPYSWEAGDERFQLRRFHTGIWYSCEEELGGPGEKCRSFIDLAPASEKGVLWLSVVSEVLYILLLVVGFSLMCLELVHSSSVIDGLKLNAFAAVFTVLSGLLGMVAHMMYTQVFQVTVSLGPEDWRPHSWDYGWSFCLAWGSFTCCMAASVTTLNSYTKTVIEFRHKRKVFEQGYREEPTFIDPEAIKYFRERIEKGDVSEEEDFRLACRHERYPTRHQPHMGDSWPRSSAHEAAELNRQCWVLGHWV

Target: Flag–GSG1L (Germ Cell-Specific Gene 1-Like) (mouse) (UniProt D3Z7H4)
Assay: co-IP; HEK293T cells co-expressing HA–GluA1 or HA–GluK1 with Flag–GSG1L; lysis buffer 25 mM Tris pH 7.5, 1% Triton X-100, 150 mM NaCl, 5% glycerol, 1 mM EDTA; anti-Flag M2 antibody and Protein G beads overnight at 4 °C; HA-tagged subunits probed with anti-HA

binding: binds
Substance: HA–GluA1 (AMPAR GluA1 subunit) (from UniProt P19490-2) (receptor)
